Experimental data as given in PubChem BioAssay AID256 (DTP/NCI, 2004).
The list does not hold the whole screen: it gathers tests that were run many times, whatever their T/C, doses with no T/C, and many T/C values between a quarter and a half above the control. Other doses and runs of a compound stand elsewhere. T/C gives the treated animals as a percentage of the vehicle group. Some doses have a count of surviving animals in place of a T/C: the source holds a T/C of zero for them, seemingly a mark for toxic or unscored doses. Some doses without a T/C left all or most animals alive at the check, yet need not have been tolerated: the source hardly ever lists a survival T/C far under the control, and the zero likely stands for such cases as well. Counts of survivors are from the toxicity check (mostly the fifth day) where no day follows; animals may have died later. Schedules are NCI's codes, taken here to give the interval after Q, in days (D) or hours (H), and the number of doses after X. Some entries hold several experiments; their values stand side by side, smallest first. For survival time, this PubChem deposit counts one and a half times the control or more as active, and values a quarter to a half above the control carry no call in these data; other NCI protocols may use other cut-offs. Some T/C values are followed by the survivors on the day toxicity was checked, most often the fifth; where none is given, no animal had died by that day.

Test system: CD2F1 mice, L1210 leukemia ip, survival T/C
Assay: NCI In Vivo Anticancer Drug Screen. Data for tumor model L1210 Leukemia (intraperitoneal) in CD2F1 (CDF1) mice
Details: higher T/C = longer survival
In short: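 Mice carrying a transplanted tumor received test compound or vehicle alone. The value is the measurement in the treated group divided by that in the vehicle-treated control group.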

[1] = T/C endpoint: mean survival time, dose: 400.0 mg/kg/injection, schedule: Q01DX001 (ip), vehicle: saline with Tween-80
[2] = T/C endpoint: mean survival time, dose: 400.0 mg/kg/injection, schedule: Q01DX009 (ip), vehicle: saline with Tween-80
[3] = T/C endpoint: mean survival time, dose: 200.0 mg/kg/injection, schedule: Q01DX009 (ip), vehicle: saline with Tween-80
[4] = T/C endpoint: mean survival time, dose: 300.0 mg/kg/injection, schedule: Q01DX001 (ip), vehicle: saline
[5] = T/C endpoint: mean survival time, dose: 100.0 mg/kg/injection, schedule: Q04DX003 (ip), vehicle: saline
[6] = T/C endpoint: mean survival time, dose: 200.0 mg/kg/injection, schedule: Q04DX003 (ip), vehicle: saline
[7] = T/C endpoint: mean survival time, dose: 400.0 mg/kg/injection, schedule: Q04DX003 (ip), vehicle: saline
[8] = T/C endpoint: mean survival time, dose: 100.0 mg/kg/injection, schedule: Q04DX003 (ip), vehicle: saline with Tween-80
[9] = T/C endpoint: mean survival time, dose: 200.0 mg/kg/injection, schedule: Q04DX003 (ip), vehicle: saline with Tween-80
[10] = T/C endpoint: mean survival time, dose: 400.0 mg/kg/injection, schedule: Q04DX003 (ip), vehicle: saline with Tween-80
[11] = T/C endpoint: mean survival time, dose: 100.0 mg/kg/injection, schedule: Q04DX002 (ip), vehicle: saline with Tween-80
[12] = T/C endpoint: mean survival time, dose: 200.0 mg/kg/injection, schedule: Q04DX002 (ip), vehicle: saline with Tween-80
[13] = T/C endpoint: mean survival time, dose: 400.0 mg/kg/injection, schedule: Q04DX002 (ip), vehicle: saline with Tween-80

In the case of `CSC1SCC2C(=O)N(C)C(C(C)C)C(=O)OCC(NC(=O)c3cnc4ccccc4n3)C(=O)NC(C)C(=O)N(C)C1C(=O)N(C)C(C(C)C)C(=O)OCC(NC(=O)c1cnc3ccccc3n1)C(=O)NC(C)C(=O)N2C` (stereo not given), the T/C (T/C endpoint: mean survival time, dose: 64.0 micrograms/kg/injection, schedule: Q01DX009 (ip), vehicle: saline) is reported as 129 % of control [5 of 6 alive], the T/C (T/C endpoint: mean survival time, dose: 96.0 micrograms/kg/injection, schedule: Q01DX009 (ip), vehicle: saline) is reported as 132 % of control and the T/C (T/C endpoint: mean survival time, dose: 128.0 micrograms/kg/injection, schedule: Q01DX009 (ip), vehicle: saline) is reported as 129 % of control. For the same compound, the T/C (T/C endpoint: median survival time, dose: 67.0 micrograms/kg/injection, schedule: Q01DX005 (ip), vehicle: saline) was 137 % of control, the T/C (T/C endpoint: median survival time, dose: 100.0 micrograms/kg/injection, schedule: Q01DX005 (ip), vehicle: saline, evaluated on day 30) was 143 % of control and the T/C (T/C endpoint: median survival time, dose: 100.0 micrograms/kg/injection, schedule: Q01DX005 (ip), vehicle: saline, evaluated on day 60) was 125 % of control.
With `C[n+]1c2ccccc2c(Cl)c2ccccc21` the survivor count [1] was 0 of 6.
For `O=[N+]([O-])c1cc(Cl)ccc1O`, the survivor count [2] was 1 of 6.
In the case of `CC(=O)CC(=O)Nc1ccc(N=Nc2ccccc2)cc1`, the survivor count [2] is reported as 1 of 6.
For `COc1cc(C2c3cc4c(cc3C(O)C(CO)C2CO)OCO4)cc(OC)c1OC` (stereo not given), the T/C [3] was 131 % of control.
In the case of `CN(C)N=C1CCCC1`, the survivor count [4] is reported as 3 of 6.
`CCOC(=O)NC(C)(C)CN(C(=O)OCC)C(C)C` was tested, and the survivor count (T/C endpoint: mean survival time, dose: 400.0 mg/kg/injection, schedule: Q01DX009 (ip), vehicle: other) was 4 of 6.
With `SC1(S)CN2CCC1CC2` the survivor count [5] was 0 of 6, the survivor count [6] was 0 of 6 and the survivor count [7] was 0 of 6.
In the case of `COC1=C(N=[N+]=[N-])C(=O)C(OC)=C(N=[N+]=[N-])C1=O`, the survivor count [8] is reported as 0 of 6, the survivor count [9] is reported as 0 of 6 and the survivor count [10] is reported as 0 of 6.
In the case of `C#CC(O)C(CC)CCCC` (stereo not given), the survivor count [3] is reported as 4 of 6.
In the case of `CSc1ccc(OC(=O)Nc2ccccc2F)cc1`, the survivor count [10] is reported as 6 of 6.
In the case of `CCCC(=O)Nc1ccn(C2OC(CO)C(O)C2O)c(=O)n1` (stereo not given), the T/C [11] is reported as 130 % of control, the T/C [12] is reported as 130 % of control and the T/C [13] is reported as 139 % of control.
In the case of `CC(=O)OC1CC2C[CH]([Hg][Cl])C1C2` (stereo not given), the survivor count [8] is reported as 0 of 3, the survivor count [9] is reported as 0 of 3 and the survivor count [10] is reported as 0 of 3.
`O=C(Nc1ccccc1)c1ccc(Cl)c([N+](=O)[O-])c1` was tested, and the survivor count [9] was 3 of 6 and the survivor count [10] was 3 of 6.
In the case of `O=[N+]([O-])c1ccc(N=Nc2ccc3c(c2)-c2ccccc2C3=P(c2ccccc2)(c2ccccc2)c2ccccc2)cc1`, the survivor count [10] is reported as 2 of 6.
`NC(=S)N/N=C/c1ccc(Cl)cn1` was tested, and the T/C (T/C endpoint: mean survival time, dose: 7.33 mg/kg/injection, schedule: Q01DX009 (ip), vehicle: saline with Tween-80) was 141 % of control [9 of 10 alive], the T/C (T/C endpoint: mean survival time, dose: 11.0 mg/kg/injection, schedule: Q01DX009 (ip), vehicle: saline with Tween-80) was 140 % of control and the survivor count (T/C endpoint: mean survival time, dose: 16.5 mg/kg/injection, schedule: Q01DX009 (ip), vehicle: saline with Tween-80) was 5 of 10. The survivor count (T/C endpoint: mean survival time, dose: 25.0 mg/kg/injection, schedule: Q01DX009 (ip), vehicle: saline with Tween-80) was 0 of 10, the T/C (T/C endpoint: mean survival time, dose: 25.0 mg/kg/injection, schedule: Q04DX002 (ip), vehicle: saline with Tween-80) was 132 and 143 % of control and the survivor count (T/C endpoint: mean survival time, dose: 50.0 mg/kg/injection, schedule: Q04DX002 (ip), vehicle: saline with Tween-80) was 0 of 3. For the same compound, the survivor count [11] was 0 of 3, the survivor count [12] was 0 of 3 and the survivor count [13] was 0 of 3.
In the case of `CCOC(=O)C[S+](C)C`, the survivor count [4] is reported as 3 of 6.
For `CC1(C)CC(NC(=O)NCCCl)CC(C)(C)N1`, the survivor count [5] was 5 of 6, the survivor count [6] was 1 of 6 and the survivor count [7] was 0 of 6.
`Cn1c(N)c(C2OC(=O)c3ccccc32)c(=O)n(C)c1=O` (stereo not given) was tested, and the survivor count (T/C endpoint: mean survival time, dose: 400.0 mg/kg/injection, schedule: Q04DX002 (ip), vehicle: Klucel (hydroxypropylcellulose) (HPC)) was 2 of 3.
For `CC([NH-])C([NH-])O.O=S(=O)(O)O.[Pt+2]` (stereo not given), the T/C (T/C endpoint: mean survival time, dose: 6.25 mg/kg/injection, schedule: Q04DX003 (ip), vehicle: saline) was 130 % of control.
In the case of `CCOc1cc2c(cc1C(C)c1ccc(OC)cc1)OCO2` (stereo not given), the survivor count (T/C endpoint: median survival time, dose: 200.0 mg/kg/injection, schedule: Q01DX009 (ip), vehicle: distilled water + alcohol) is reported as 5 of 6 and the survivor count (T/C endpoint: median survival time, dose: 400.0 mg/kg/injection, schedule: Q01DX009 (ip), vehicle: distilled water + alcohol) is reported as 5 of 6.
`O=C1OC(=O)C2C3CCC(O3)C12` (stereo not given) was tested, and the survivor count (T/C endpoint: mean survival time, dose: 6.25 mg/kg/injection, schedule: Q01DX009 (ip), vehicle: saline) was 0 of 6, the survivor count (T/C endpoint: mean survival time, dose: 12.5 mg/kg/injection, schedule: Q04DX003 (ip), vehicle: saline) was 2 of 6 and the survivor count (T/C endpoint: mean survival time, dose: 25.0 mg/kg/injection, schedule: Q04DX003 (ip), vehicle: saline) was 0 of 6. For the same compound, the survivor count (T/C endpoint: mean survival time, dose: 50.0 mg/kg/injection, schedule: Q04DX003 (ip), vehicle: saline) was 0 of 6.
In the case of `CN(C=O)NC(=O)N(CCCl)N=O`, the survivor count (T/C endpoint: median survival time, dose: 50.0 mg/kg/injection, schedule: Q01DX001 (ip), vehicle: saline) is reported as 6 of 6 and the survivor count (T/C endpoint: median survival time, dose: 100.0 mg/kg/injection, schedule: Q01DX001 (ip), vehicle: saline) is reported as 1 of 6 and 3 of 6.
With `NC(CS)=NC1CN2CCC1CC2` (stereo not given) the survivor count (T/C endpoint: mean survival time, dose: 200.0 mg/kg/injection, schedule: Q04DX002 (ip), vehicle: saline) was 0 of 3.
For `O=C1CC(=O)NC(=S)N1`, the survivor count (T/C endpoint: mean survival time, dose: 400.0 mg/kg/injection, schedule: Q01DX009 (ip), vehicle: saline) was 0 of 6.
In the case of `CC(=O)Nc1cc([N+](=O)[O-])cc([N+](=O)[O-])c1O`, the survivor count [1] is reported as 2 of 6.
With `C[CH2][Sn]1([CH2]C)[O]C2C(CO)OC(n3ccc4c(N)ncnc43)C2[O]1` (stereo not given) the survivor count (T/C endpoint: mean survival time, dose: 6.25 mg/kg/injection, schedule: Q01DX005 (ip), vehicle: other) was 6 of 6, the survivor count (T/C endpoint: mean survival time, dose: 12.5 mg/kg/injection, schedule: Q01DX005 (ip), vehicle: other) was 0 of 6 and 2 of 6 and the survivor count (T/C endpoint: mean survival time, dose: 25.0 mg/kg/injection, schedule: Q01DX005 (ip), vehicle: other) was 0 of 6. For the same compound, the survivor count (T/C endpoint: mean survival time, dose: 50.0 mg/kg/injection, schedule: Q01DX005 (ip), vehicle: other) was 0 of 6, the survivor count (T/C endpoint: mean survival time, dose: 100.0 mg/kg/injection, schedule: Q01DX005 (ip), vehicle: other) was 0 of 6 and the survivor count (T/C endpoint: mean survival time, dose: 200.0 mg/kg/injection, schedule: Q01DX005 (ip), vehicle: other) was 0 of 6.
In the case of `CC(O)C(NC(=O)OC(C)(C)C)C(=O)ON1C(=O)CCC1=O` (stereo not given), the survivor count [3] is reported as 2 of 6 and the survivor count [2] is reported as 0 of 6.
For `COc1cc2c(c3c1c(=O)c1cccc(F)c1n3C)C=CC(C)(C)O2`, the T/C (T/C endpoint: median survival time, dose: 25.0 mg/kg/injection, schedule: Q01DX009 (ip), vehicle: Klucel (hydroxypropylcellulose) (HPC)) was 129 and 132 % of control, the T/C (T/C endpoint: median survival time, dose: 50.0 mg/kg/injection, schedule: Q01DX009 (ip), vehicle: Klucel (hydroxypropylcellulose) (HPC)) was 141 % of control and the T/C (T/C endpoint: median survival time, dose: 100.0 mg/kg/injection, schedule: Q01DX009 (ip), vehicle: Klucel (hydroxypropylcellulose) (HPC)) was 139 % of control [5 of 6 alive]. For the same compound, the survivor count (T/C endpoint: median survival time, dose: 400.0 mg/kg/injection, schedule: Q01DX009 (ip), vehicle: Klucel (hydroxypropylcellulose) (HPC)) was 1 of 6 and 3 of 6.
With `CCC/C=C/C=C/C(=O)OC1/C(=C/C(=O)OC)CC2CC(C(C)O)OC(=O)CC(O)CC3CC(OC(C)=O)C(C)(C)C(O)(CC4C/C(=C/C(=O)OC)CC(/C=C/C(C)(C)C1(O)O2)O4)O3` (stereo not given) the T/C (T/C endpoint: median survival time, dose: 37.5 micrograms/kg/injection, schedule: Q01DX009 (ip), vehicle: saline + alcohol) was 134 % of control, the T/C (T/C endpoint: median survival time, dose: 75.0 micrograms/kg/injection, schedule: Q01DX009 (ip), vehicle: saline + alcohol) was 140 and 142 % of control and the survivor count (T/C endpoint: median survival time, dose: 150.0 micrograms/kg/injection, schedule: Q01DX009 (ip), vehicle: saline + alcohol) was 2 of 5. The survivor count (T/C endpoint: median survival time, dose: 300.0 micrograms/kg/injection, schedule: Q01DX009 (ip), vehicle: saline + alcohol) was 0 of 6.
With `Cc1cccc(Cl)c1NC1=NCCO1` the survivor count [8] was 3 of 6, the survivor count [9] was 0 of 6 and the survivor count [10] was 2 of 6.
`N#CCCCCCCN=[N+]=[N-]` was tested, and the survivor count [4] was 1 of 6.
